Laboratory results taken from the supplement of paper PMC7877785.
± gives the uncertainty stated by the source. The uncertainty is large for many entries.

Assay: self-splicing fitness, log relative to wild type (ln ratio); higher = more splicing; Tetrahymena group I intron in knt gene, E. coli kanamycin selection, DiMSum; sequences stand for … in CUCUCU…GGAGGGAAAAGUUAUCAGGCAUGCACCUGGUAGCUAGUCUUUAAACCAAUAGAUUGCAUCGGUUUAAAAGGCAAGACCGUCAAAUUGCGGGAAAGGGGUCAACAGCCGUUCAGUACCAAGUCUCAGGGGAAACUUUGAGAUGGCCUUGCAAAGGGUAUGGUAAUAAGCUGACGGACAUGGUCCUAACCACGCAGCCAAGUCCUAAGUCAACAGAUCUUCUGUUGAUAUGGAUGCAGUUCACAGACUAAAUGUCGGUCGGGGAAGAUGUAUUCUUCUCAUAAGAUAUAGUCGGACCUCUCCUUAAUGGGAGCUAGCGGAUGAAGUGAUGCAACACUGGAGCCGCUGGGAACUAAUUUGUAUGCGAAAGUAUAUUGAUUAGUUUUGGAGUACUCGUGGUCG
Outline: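 The eight P1ex-region nucleotides of an intron in the knt kanamycin-resistance gene on pET-22b(+) were all randomised and the library put into E. coli BL21(DE3). Six replicate transformations were grown overnight at 37°C or 30°C on LB agar with or without 25 μg/mL kanamycin, together with 100 μg/mL carbenicillin, 50 μM IPTG and 0.2% rhamnose. Colonies were pooled and amplicon-sequenced on an Illumina HiSeq 2500. Fitness from DiMSum is the error-weighted combination of wild-type-normalised replicate fold changes, kanamycin over none.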

Sequence	self-splicing fitness (ln) (30 °C)	self-splicing fitness (ln) (37 °C)
CGACAGCAAUAUUACGUAUC	-4.74 ± 0.58	
CUAGAGCAAUAUUACGUGGA	-3.21 ± 0.19	-1.68 ± 0.18
AACUAGCAAUAUUACGGAUG	-2.26 ± 0.067	-1.03 ± 0.072
ACCUAGCAAUAUUACGCCAC		-3.33 ± 0.52
CUCCAGCAAUAUUACGAAGA	-3.9 ± 0.73	
GUUCAGCAAUAUUACGUACU	-1.24 ± 0.1	0.162 ± 0.13
CGCUAGCAAUAUUACGCGCG	-4.39 ± 0.73	-2.98 ± 1.1
GGUUAGCAAUAUUACGCUUC	-3.25 ± 0.77	-1.95 ± 0.57
GUUGAGCAAUAUUACGUAUU		-2.8 ± 1
UACGAGCAAUAUUACGCCCC		-1.16 ± 0.9
AUAGAGCAAUAUUACGGGCC	-2.71 ± 0.62	-1.98 ± 1.1
UAAGAGCAAUAUUACGGUUU	-3.48 ± 0.24	-1.85 ± 0.23
CGUGAGCAAUAUUACGGGUA	-2.65 ± 1.1	
CCGAAGCAAUAUUACGUUAA	-4.68 ± 1	
CUAAAGCAAUAUUACGUGCC	-4.57 ± 0.29	-2.25 ± 0.18
CCGUAGCAAUAUUACGCUCA	-4.56 ± 0.51	
UCGGAGCAAUAUUACGCUCG		-1.05 ± 0.67
CCACAGCAAUAUUACGUGCC	-1.6 ± 0.15	-2.36 ± 0.21
AUUGAGCAAUAUUACGGCCC	-3.21 ± 1.1	
CCCUAGCAAUAUUACGAGAC	-3.85 ± 0.22	-2.69 ± 0.34
CAUGAGCAAUAUUACGGACU	-4.39 ± 0.73	
GAGUAGCAAUAUUACGUAAA	-2.93 ± 0.71	
GCUGAGCAAUAUUACGGCCU		-1.64 ± 0.83

Laid out differently: results already given
Sequence,self-splicing fitness (ln) (30 °C),self-splicing fitness (ln) (37 °C)
CUAGAGCAAUAUUACGUGGA,-3.21 ± 0.19,-1.68 ± 0.18
GUUCAGCAAUAUUACGUACU,-1.24 ± 0.1,0.162 ± 0.13
GUUGAGCAAUAUUACGUAUU,,-2.8 ± 1
AUAGAGCAAUAUUACGGGCC,-2.71 ± 0.62,-1.98 ± 1.1
UAAGAGCAAUAUUACGGUUU,-3.48 ± 0.24,-1.85 ± 0.23
CCGAAGCAAUAUUACGUUAA,-4.68 ± 1,
CCCUAGCAAUAUUACGAGAC,-3.85 ± 0.22,-2.69 ± 0.34
GCUGAGCAAUAUUACGGCCU,,-1.64 ± 0.83

The list goes on.

Sequence	self-splicing fitness (ln) (30 °C)	self-splicing fitness (ln) (37 °C)
UGGGAGCAAUAUUACGUGAC	-3.71 ± 0.6	
GGGUAGCAAUAUUACGGCUC	-0.998 ± 0.82	-0.44 ± 1.4
AAUUAGCAAUAUUACGGGUU	-1.4 ± 0.12	-0.955 ± 0.12
CCAGAGCAAUAUUACGUCAC		-0.927 ± 0.87
UUAUAGCAAUAUUACGCACC	-2.61 ± 0.78	-2.12 ± 0.79
GAUUAGCAAUAUUACGUUUA	-2.9 ± 0.25	-1.05 ± 0.15
AGUGAGCAAUAUUACGGAAG		-3.64 ± 1
GCAGAGCAAUAUUACGUCGC	-4.17 ± 1.1	-3.4 ± 1
ACAUAGCAAUAUUACGAAGC	-3.98 ± 0.52	
CGAGAGCAAUAUUACGCUUG	-3.51 ± 0.33	-3.14 ± 0.34
GACGAGCAAUAUUACGUGAC	-2.77 ± 0.31	-1.48 ± 0.26
UAGGAGCAAUAUUACGCCUU	-2.44 ± 0.54	-1.6 ± 0.53
GGGUAGCAAUAUUACGGACC	-0.423 ± 0.91	-1.23 ± 0.57
GCGAAGCAAUAUUACGAUGC	-3.55 ± 0.76	-3.06 ± 0.61
UAACAGCAAUAUUACGCGGA	-2.12 ± 0.11	0.0542 ± 0.076
CUAGAGCAAUAUUACGGAUA	-2.43 ± 0.51	
UUUAAGCAAUAUUACGGCCC		-1.94 ± 0.81
GUGUAGCAAUAUUACGCUAC		-1.88 ± 1.2
GAUGAGCAAUAUUACGCUAG	-3.92 ± 0.61	
CGUGAGCAAUAUUACGCUCU		-3.33 ± 1
UGCCAGCAAUAUUACGCCUC	-3.13 ± 1	-1.78 ± 1.2
AGAGAGCAAUAUUACGUAAC	-4.93 ± 1	
